Test results published in US10017463B2, “Inhibitors of deubiquitinating proteases” (Brandeis University, priority 2014, dated 2018).
Some of these results come from one statement about several compounds together. Some compounds share one range, which may span the group rather than tell each member.

Tested on: Bcr-Abl
Experiment: Bcr-Abl immunoblot in BaF3/p210 cells
Format: cell-based, murine
Conditions: 15 μM, 4 h
Description: After this time cells were lysed and sonicated in S.D.S. Whole cell lysates were analyzed for Bcr-Abl and tubulin in triplicate. Panel B is a bar graph showing the quantitation of blots in Panel A. Panel C is an image of an immunoblot showing BaF3 cells were treated with various concentrations of TU50 in triplicate for 4 h, and then whole cell lysates were analyzed for Bcr-Abl and tubulin. Panel D is an image of an immunoblot similar to the experiment in Panel C but using TU46. Panel E is an image of an immunoblot similar to the experiment in Panel D but using TU49. Panel F is a plot showing the quantification of blots in Panel C, Panel D, and Panel E.
Proliferation inhibition/apoptosis assays and lysate activity profiling were all consistent with USP9x inhibition. Next, whether cell death in BaF3/p210 cells occurred through degradation of Bcr-Abl was validated. […] Encouragingly, the EC50 for Bcr-Abl degradation was 8±2 μM for TU50, which is within 2 fold of the proliferation inhibition EC50 obtained above (FIG. 7, Panel C).

Row | SMILES | loss of Bcr-Abl
1 | CC(C)(C)OC(=O)NCCc1ccc(N=C=S)cc1 [TU46] | 50-75%
2 | O=C(NCc1ccc(N=C=S)cc1)OCc1ccccc1 [TU49] | 50-75%
3 | CC(C)(C)OC(=O)NCc1cccc(N=C=S)c1 [TU50] | 50-75%
